{
  "sequences": {"note": "Protein sequences, listed by entry. Tags and fused reporters are not part of them.", "UniProt Q09472": "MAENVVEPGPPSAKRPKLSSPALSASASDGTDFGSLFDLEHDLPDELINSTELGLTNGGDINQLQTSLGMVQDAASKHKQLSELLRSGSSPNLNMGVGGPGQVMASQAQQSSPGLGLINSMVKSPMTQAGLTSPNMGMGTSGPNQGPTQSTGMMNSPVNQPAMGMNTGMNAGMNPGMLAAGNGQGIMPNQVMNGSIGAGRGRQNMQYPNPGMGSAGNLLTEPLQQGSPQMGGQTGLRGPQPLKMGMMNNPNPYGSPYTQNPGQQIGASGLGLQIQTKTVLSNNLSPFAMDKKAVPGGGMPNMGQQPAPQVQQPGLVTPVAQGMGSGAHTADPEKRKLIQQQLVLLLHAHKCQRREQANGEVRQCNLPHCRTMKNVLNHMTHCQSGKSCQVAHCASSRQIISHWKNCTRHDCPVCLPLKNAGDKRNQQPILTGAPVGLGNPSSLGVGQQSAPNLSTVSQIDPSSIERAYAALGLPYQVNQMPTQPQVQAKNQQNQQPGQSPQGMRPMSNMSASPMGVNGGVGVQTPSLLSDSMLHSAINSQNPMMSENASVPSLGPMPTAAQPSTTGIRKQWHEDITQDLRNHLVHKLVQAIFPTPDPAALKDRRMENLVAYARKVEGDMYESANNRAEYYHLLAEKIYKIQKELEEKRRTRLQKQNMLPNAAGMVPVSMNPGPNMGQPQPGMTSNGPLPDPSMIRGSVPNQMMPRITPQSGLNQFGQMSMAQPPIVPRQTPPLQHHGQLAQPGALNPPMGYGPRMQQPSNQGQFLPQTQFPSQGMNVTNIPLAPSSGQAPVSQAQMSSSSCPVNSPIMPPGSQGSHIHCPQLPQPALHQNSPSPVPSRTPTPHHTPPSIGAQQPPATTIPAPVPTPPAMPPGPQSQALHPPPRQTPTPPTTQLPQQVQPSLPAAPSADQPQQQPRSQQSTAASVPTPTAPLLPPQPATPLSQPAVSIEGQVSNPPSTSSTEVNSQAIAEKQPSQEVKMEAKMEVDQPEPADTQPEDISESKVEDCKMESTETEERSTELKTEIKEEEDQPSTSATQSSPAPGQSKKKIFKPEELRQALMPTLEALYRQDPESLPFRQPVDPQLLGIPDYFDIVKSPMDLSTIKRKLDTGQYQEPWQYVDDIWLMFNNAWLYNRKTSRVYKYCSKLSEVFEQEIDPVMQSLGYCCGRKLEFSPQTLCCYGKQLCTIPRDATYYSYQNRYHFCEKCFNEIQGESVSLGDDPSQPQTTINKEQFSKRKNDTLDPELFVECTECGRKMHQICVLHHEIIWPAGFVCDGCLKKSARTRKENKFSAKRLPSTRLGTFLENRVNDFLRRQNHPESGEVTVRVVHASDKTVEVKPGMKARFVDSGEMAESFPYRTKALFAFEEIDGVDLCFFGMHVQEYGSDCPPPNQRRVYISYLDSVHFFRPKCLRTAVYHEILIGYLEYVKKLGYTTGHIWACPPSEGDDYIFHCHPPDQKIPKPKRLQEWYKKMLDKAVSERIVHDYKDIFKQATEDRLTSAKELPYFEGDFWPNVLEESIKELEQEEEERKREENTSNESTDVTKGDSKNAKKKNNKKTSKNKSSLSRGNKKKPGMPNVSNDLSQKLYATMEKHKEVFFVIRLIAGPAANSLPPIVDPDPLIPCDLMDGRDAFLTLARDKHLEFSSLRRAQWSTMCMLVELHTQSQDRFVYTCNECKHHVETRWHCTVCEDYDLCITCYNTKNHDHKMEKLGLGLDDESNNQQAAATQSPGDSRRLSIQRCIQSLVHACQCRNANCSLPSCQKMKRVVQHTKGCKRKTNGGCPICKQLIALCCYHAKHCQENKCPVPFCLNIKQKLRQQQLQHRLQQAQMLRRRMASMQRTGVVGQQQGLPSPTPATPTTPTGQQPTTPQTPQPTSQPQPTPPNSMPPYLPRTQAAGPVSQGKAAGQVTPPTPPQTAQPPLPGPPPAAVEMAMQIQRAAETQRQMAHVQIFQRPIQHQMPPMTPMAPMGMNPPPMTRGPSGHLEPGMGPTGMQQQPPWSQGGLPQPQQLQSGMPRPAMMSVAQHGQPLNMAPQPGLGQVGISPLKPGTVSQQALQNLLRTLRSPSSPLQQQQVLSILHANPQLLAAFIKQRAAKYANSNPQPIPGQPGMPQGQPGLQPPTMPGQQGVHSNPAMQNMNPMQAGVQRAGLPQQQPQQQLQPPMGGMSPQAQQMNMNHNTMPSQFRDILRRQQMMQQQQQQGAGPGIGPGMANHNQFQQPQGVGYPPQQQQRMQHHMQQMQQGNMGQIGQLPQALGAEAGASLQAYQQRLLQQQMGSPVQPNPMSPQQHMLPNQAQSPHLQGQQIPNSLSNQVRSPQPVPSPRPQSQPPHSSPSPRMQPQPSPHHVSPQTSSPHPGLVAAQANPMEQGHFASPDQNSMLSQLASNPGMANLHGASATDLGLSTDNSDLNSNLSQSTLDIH", "UniProt Q15672": "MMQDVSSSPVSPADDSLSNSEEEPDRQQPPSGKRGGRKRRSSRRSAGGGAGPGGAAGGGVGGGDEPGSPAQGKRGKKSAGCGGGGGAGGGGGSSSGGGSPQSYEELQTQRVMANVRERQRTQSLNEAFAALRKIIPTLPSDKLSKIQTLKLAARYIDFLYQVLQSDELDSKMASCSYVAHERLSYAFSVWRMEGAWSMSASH"},
  "source": "paper PMC3812021",
  "biological_target": "p300 (human (endogenous in NCI-N87)) (UniProt Q09472)",
  "assay": "co-IP; NCI-N87 cell lysate (50 mM Tris-HCl pH 7.3-7.5, 120 mM NaCl, 1 mM EDTA, 0.5% Triton X-100, protease inhibitors) incubated with 2.5 ug p300 antibody or IgG overnight at 4 C; protein A beads 4 h; four washes with lysis buffer; blot for Twist 1",
  "note": "Results are given in words; binding and its absence hold for the method and conditions named. In cells and extracts the contact can be indirect. Some binding calls cover weakened binding; strength is not graded here.",
  "data": [
    {"substance": "Twist-related protein 1 (Twist1) (from UniProt Q15672 1-202)", "values": [
      {"measurement": "binding", "value": "binds"}
    ]}
  ]
}
